Values from PubChem BioAssay AID504804 (Drosophila RNAi Screening Center, 2011)
Assay: 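Knock-downs shielding fly cells from apoptosis caused by DNA damage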 (primary screen). Cell system: Drosophila Kc cells. Reagents: long dsRNA against Drosophila genes, 0.5 µg dsRNA per well. Time to read-out: 96 h (48 h knock-down, then 48 h drug). Conditions: doxorubicin 5 µg/ml for 48 h, added 48 h after dsRNA. Measured: 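Luminescent ATP counts per replicate, not normalised, reflecting viable cells after 48 h dsRNA knock-down followed by 48 h of 5 µg/ml doxorubicin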. Reading the numbers: raw ATP luminescence: higher = more viable cells, protection from doxorubicin. Hit rule: 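Active when both duplicate wells lie at least 2 SD above the plate mean and protection is confirmed by rescreening and independent dsRNAs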.
The screen tested about 19,000 reagents; this is a random part of those that have a named target and a result. Of all reagents, 47 (0.25%) got an active call. 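Signals are raw, not normalised; exact z-scores behind calls not deposited; actives needed confirmation, so some wells reaching 2 SD are inactive.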 Names joined by + are all predicted targets of the reagent.

Gene,dsRNA,SD above plate mean,"raw ATP luminescence, replicate 1","raw ATP luminescence, replicate 2",Outcome
Adar,DRSC17725,,55680,49100,inactive
Cox17,DRSC20145,,3.29e5,2.88e5,inactive
CG4462,DRSC15583,,49537,42090,inactive
CG30470 (retired record),DRSC05553,,28940,29257,inactive
P5cr,DRSC16782,,44990,38730,inactive
CG6984,DRSC07013,,71603,73183,inactive
CG33296,DRSC00998,,2.81e5,2.99e5,inactive
Fer3HCH,DRSC19892,,3.40e5,3.08e5,inactive
Iml1,DRSC08249,,49547,52733,inactive
CG18139 (retired record) + Hmx,DRSC15307,at least 2 SD above plate mean,1.22e5,1.10e5,active
Vajk2,DRSC02540,,79403,68060,inactive
Cse1,DRSC03287,,87187,64743,inactive
CG7352,DRSC16233,,60237,50967,inactive
SuUR,DRSC11292,,93083,73957,inactive
Trmt112,DRSC11685,,92190,70677,inactive
Rtnl2,DRSC12609,,58583,59477,inactive
pcx,DRSC18186,,53760,50440,inactive
pcx,DRSC18187,,74250,56330,inactive
pcx,DRSC18188,,50370,54380,inactive
pcx,DRSC18189,,56420,53680,inactive
pcx,DRSC18190,,51700,58260,inactive
CG13723,DRSC10052,,30663,22467,inactive
sbr,DRSC19770,,2.32e5,2.97e5,inactive
sbr,DRSC20368,,1.94e5,1.94e5,inactive
Usp12-46,DRSC16175,,62610,63320,inactive
TfAP-2,DRSC11601,,58977,72770,inactive
Ir48a,DRSC05301,,71313,1.03e5,inactive
lectin-24Db,DRSC00553,,1.29e5,1.03e5,inactive
RpL11,DRSC07537,,32600,60153,inactive
RpL7-like + CG34164,DRSC02836,,68140,68097,inactive
RpL7-like + CG34164,DRSC02837,,69847,70073,inactive
CG15461,DRSC20532,,3.74e5,3.63e5,inactive
CG11858,DRSC14412,,60680,78900,inactive
mRpL36,DRSC10337,,50803,52493,inactive
CG14535,DRSC02393,,47327,84917,inactive
Ald2,DRSC15799,,75120,70860,inactive
CG11889 + CG11891,DRSC14426,,58360,53570,inactive
CG11889 + CG11891,DRSC14427,,48590,47830,inactive
CG15337,DRSC18020,,32980,47860,inactive
Mrm2,DRSC14310,,62890,54520,inactive
CG14427,DRSC17921,,45850,46990,inactive
CG7130,DRSC11797,,59183,46190,inactive
Sesn,DRSC04101,,64823,74340,inactive
Sesn,DRSC04102,,58837,57670,inactive
Sesn,DRSC04103,,68317,55683,inactive
Dbp73D,DRSC11142,,34340,30873,inactive
Pgant35A,DRSC03557,2 to 3 SD above plate mean,93903,1.36e5,active
CG3625,DRSC00008,,1.61e5,2.19e5,inactive
CG3625,DRSC00621,,97730,76150,inactive
CG4572,DRSC15603,,42407,32490,inactive
CG32176,DRSC10057,,31570,33713,inactive
CG32176,DRSC10058,,52340,41980,inactive
mim,DRSC05013,,19587,32167,inactive
CalpB,DRSC11109,,37843,37717,inactive
prtp,DRSC19804,,1.89e5,1.94e5,inactive
CG30393,DRSC04253,,56227,50750,inactive
CG4575 (retired record),DRSC18372,,37510,50050,inactive
levy,DRSC04289,,44663,59050,inactive
CG17105,DRSC02574,,36580,62973,inactive
pie,DRSC03590,,67220,57813,inactive
ATP8A,DRSC05421,,70420,89930,inactive
ATP8A,DRSC06643,,57147,57597,inactive
CG5359,DRSC15780,,26863,62443,inactive
CG15048 (retired record),DRSC19624,,2.45e5,2.40e5,inactive
mth,DRSC08725,,60913,70420,inactive
CG7222,DRSC07019,,55267,56013,inactive
flfl,DRSC16474,,42980,28880,inactive
CG5742,DRSC06949,,66790,57787,inactive
jv,DRSC08831,,1.77e5,1.92e5,inactive
jv,DRSC08832,,1.64e5,1.91e5,inactive
Cpr92A,DRSC16000,,70880,88840,inactive
Tasp1,DRSC10495,,16770,13963,inactive
Tim23,DRSC21240,,1.97e5,2.24e5,inactive
eIF3j,DRSC06107,,85803,80743,inactive
Pex1,DRSC11358,,24450,20523,inactive
Hph,DRSC12164,,49300,27313,inactive
Hph,DRSC12251,,66707,57880,inactive
B4,DRSC01868,,1.10e5,75983,inactive
B4,DRSC03175,,66130,68103,inactive
CG14424,DRSC18472,,61950,57160,inactive
mdlc,DRSC15690,,39573,51717,inactive
Stip1,DRSC00756,,85207,64900,inactive
CG42402,DRSC21116,,3.49e5,3.28e5,inactive
Nuf2,DRSC03123,,1.10e5,66320,inactive
snama,DRSC04049,,51077,56217,inactive
Ubc6,DRSC12370,,28777,30687,inactive
TTLL1B,DRSC08594,,1.02e5,93723,inactive
CG31128,DRSC13675,,2.08e5,2.14e5,inactive
CG30427,DRSC04014,,78007,78400,inactive
CG30427,DRSC04311,,82970,70117,inactive
CG30427,DRSC04323,,51353,70340,inactive
CG1824,DRSC19796,,2.69e5,2.74e5,inactive
Kebab,DRSC00827,,1.12e5,82040,inactive
Polr2H,DRSC11642,,24233,23377,inactive
CG12438,DRSC02167,,30760,52900,inactive
CG9877,DRSC04587,,68943,73377,inactive
CG6873,DRSC20014,,1.91e5,1.98e5,inactive
CG12491 + CG34105,DRSC04008,,96130,1.12e5,inactive
CG12491 + CG34105,DRSC04124,,50673,45267,inactive
iPLA2-VIA,DRSC10699,,38423,35460,inactive
Gr10a,DRSC18897,,2.82e5,3.06e5,inactive
phol,DRSC10367,,25787,21340,inactive
CG14829,DRSC10199,,85477,67283,inactive
CG13838,DRSC14688,,61030,53720,inactive
Blimp-1,DRSC10496,,56303,65430,inactive
Not3,DRSC04908,,1.02e5,75087,inactive
AP-2sigma,DRSC15957,,43200,32340,inactive

Reprinted from the listing, 14 entries:
Gene,dsRNA,SD above plate mean,"raw ATP luminescence, replicate 1","raw ATP luminescence, replicate 2",Outcome
pie,DRSC03590,,67220,57813,inactive
ATP8A,DRSC05421,,70420,89930,inactive
ATP8A,DRSC06643,,57147,57597,inactive
CG5359,DRSC15780,,26863,62443,inactive
CG15048 (retired record),DRSC19624,,2.45e5,2.40e5,inactive
mth,DRSC08725,,60913,70420,inactive
CG7222,DRSC07019,,55267,56013,inactive
flfl,DRSC16474,,42980,28880,inactive
CG5742,DRSC06949,,66790,57787,inactive
jv,DRSC08831,,1.77e5,1.92e5,inactive
jv,DRSC08832,,1.64e5,1.91e5,inactive
Cpr92A,DRSC16000,,70880,88840,inactive
Tasp1,DRSC10495,,16770,13963,inactive
Tim23,DRSC21240,,1.97e5,2.24e5,inactive
